In PubChem BioAssay AID2685 (National Center for Advancing Translational Sciences (NCATS), 2010):
The campaign covered roughly 320,000 compounds. About 2,100 (0.66%) were called active. Inconclusive results, whose numbers are uncertain, are shown with a selection of clear calls. The call rests on the fitted dose curve; in most records, active means well fitted inhibition curve with a large enough effect in the signal ratio, with a control signal flat (not every such curve was filed as active); inconclusive means small, poorly fitted or top-dose-only effect, or effect the other way, or a change in a side signal; inactive means flat fitted curve, though single readings scatter; the % refers to the signal ratio. A potency beside an inconclusive call is a rough fit, not a confirmed value.

Assay: qHTS Assay for Lipid Storage Modulators in Drosophila S3 Cells
Conditions: BODIPY lipid droplet fluorescence, 18-24 h, cells fed with added oleic acid; lipid storage change, negative = inhibition: at 46.1 µM (top of the series) unless noted
Method in brief: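 Laser-scanning cytometry quantifies lipid droplet accumulation (500–530 nm total intensity; droplet/cell object ratio) in oleic acid-fed (400 uM added) Drosophila S3 cells treated with a concentration series. 20 uM Triacsin C defined 100% inhibition.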
On the % scale 0 is the no-effect control and ±100 the full control effect; potency means the concentration at half of the fitted maximal effect.

Compound	lipid storage change, negative = inhibition	Potency
O=C(Nc1cccc2c1CCCC2)c1cc([N+](=O)[O-])ccc1Cl	inconclusive: 22.6%	
CCOC(CNC(=O)C(=O)NCC(c1ccco1)N1CCN(c2ccc(OC)cc2)CC1)OCC (stereo unspecified)	inconclusive: 21%	
CC(C)(C)N(Cc1ccccc1)C(=O)COC(=O)CNC(=O)c1ccco1	inconclusive: -62.4% [at 0.0737 µM]	
CC(=O)COc1ccc2cc(-c3ccccc3)c(=O)oc2c1		inconclusive: 5.8 µM [falling, single point]
Cc1ccc(-c2noc(CCCc3ccccc3)n2)cc1	inconclusive: -87.6%	
O=C(NNS(=O)(=O)c1ccccc1)c1ccc(F)cc1		inconclusive: 18.4 µM [activator, single point]
Brc1ccc(-c2ccc(C3Nc4cccc5cccc(c45)N3)o2)cc1	inconclusive: 11.6%	
O=C(CN(C(=O)CCC(=O)Nc1nccs1)c1ccc2c(c1)OCCO2)NCc1ccco1		inconclusive: 29.1 µM [activator, single point]
Cc1sc2ncnc(SCC(=O)Nc3ccc(CN4CCCC4)cc3)c2c1C	inactive: -3.27%	
CCc1ccc(OCC(=O)O/N=C(\N)c2cccnc2)cc1	inconclusive: 18.6%	
Cc1ccc(NC(=S)N(CCCN2CCCC(C)C2)Cc2ccco2)cc1C (stereo unspecified)	inconclusive: 18.7%	
CSc1nc2ccc(NS(=O)(=O)c3ccc(CNC(C)=O)cc3)cc2s1		inconclusive: 3.26 µM [falling, full curve]
CC(C)OC(=O)c1nnn(-c2nonc2N)c1CSc1ccccn1	inconclusive: -28%	
CCO[C@@H]1OC(C(=O)N2CCOCC2)=C[C@H](c2ccc(C(F)(F)F)cc2)[C@H]1CCCO	inconclusive: 0.407%	
O=C(O)c1cccc2c1-c1ccccc1/C2=N\Nc1ccccc1	inconclusive: 25.6%	
CSCC[C@H](NC(=O)COc1cc2c(c3oc(=O)c(C)c(C)c13)CCC(C)(C)O2)C(=O)O	inconclusive: 25.8%	
Cn1cccc1CNC(=S)Nc1ccccc1Cl	inconclusive: -5.37%	
CCOc1ccc(NS(=O)(=O)c2ccc(C(=O)NCC(c3ccc(OC)cc3)N3CCCC3)cc2)cc1 (stereo unspecified)	inconclusive: 4.58%	
CCOC(=O)c1[nH]cnc1C(=O)O	inconclusive: 12.7%	
COc1ccc(NC(=O)Cc2nnc(SCC(=O)c3ccccc3)n2C)cc1		inconclusive: 0.116 µM [falling, single point]
CC(=O)C1=C(C)Nc2ncnn2C1c1ccc(Cl)cc1 (stereo unspecified)	inconclusive: 3.97%	
CN(C)CCNc1ncnc2c1cnn2-c1ccc(Cl)cc1		inconclusive: 29.1 µM [activator, partial curve, poor fit]
COc1cc(NS(=O)(=O)c2c(C)[nH]c(C)c2C(=O)N2CCCCC2)cc(OC)c1OC	inconclusive: -21%	
CN1CCOCCOCCOCCN(C)C1=S	inconclusive: -14.8%	
Cc1cc(NC(=O)c2oc3ccccc3c2C)ccc1-n1cnnn1	inconclusive: -22.9%	
O=C(CSc1nc2ccccc2[nH]1)NCC1CCCO1 (stereo unspecified)	inactive: -1.44%	

Compound	lipid storage change, negative = inhibition	Potency
CCOC(=O)C1(CCc2ccccc2)CCN(C2Cc3ccccc3C2)CC1		inconclusive: 20.6 µM [falling, single point]
O=C(CSc1nnc(-c2ccc(O)cc2)n1Cc1ccco1)c1cccs1		inconclusive: 0.058 µM [falling, full curve]
Cc1ccc(C(=O)Oc2cc(-c3ccccc3)no2)cc1		inconclusive: 0.461 µM [falling, full curve, poor fit]
Cn1nnnc1SCc1nc2ccccc2[nH]1	inconclusive: -54.2%	
Clc1ccc(-n2nnnc2CN2CCCCC2)cc1Cl	inconclusive: 15.9%	
CCOC(=O)N1CCN(C(=O)CSc2ccc(-c3ccc(OC)c(OC)c3)nn2)CC1	inconclusive: -23.3%	
Cn1c(=O)c2sc3c(c2n(CC(=O)Nc2ccccc2)c1=O)COC(C)(C)C3	inconclusive: 79.5%	
Cc1c(C)c(C)c2[nH]c(-c3ccc4c(c3)OCO4)nc2c1C	inconclusive: 13.7%	
CNc1oc(/C=C/c2ccccc2)nc1C#N		inconclusive: 0.184 µM [rising, full curve]
CC(=O)Nc1sc(C)c(C)c1C(=O)OCC(=O)N(CCC#N)c1cc(C)cc(C)c1	inconclusive	
CCCCOc1ccc(C2/C(=C(\O)c3ccc4c(c3)OCCO4)C(=O)C(=O)N2CCCN2CCOCC2)cc1 (stereo unspecified)		inconclusive: 11.6 µM [activator, partial curve]
COCCN(C(=O)CSc1nc2ccc(Cl)cc2[nH]1)c1c(N)n(Cc2ccccc2)c(=O)[nH]c1=O		inconclusive: 29.1 µM [falling, single point]
Cc1cccc(Sc2c(C=O)c3ccccc3n2C)c1	inconclusive: 15.5%	
COc1ccc(/C=C/C(=O)OCC(=O)Nc2cc(C(F)(F)F)ccc2Cl)cc1	inconclusive: 2.42%	
CN(C(=O)COc1ncnc2sccc12)C1CCCCC1		inconclusive: 3.26 µM [activator, full curve]
Cc1ccc(S(=O)(=O)Nc2cccc(C(=O)NCC(c3ccco3)N3CCCCC3)c2)cc1F (stereo unspecified)		inconclusive: 29.1 µM [cytotoxic, single point]
OCC1(Cc2cccc(C(F)(F)F)c2)CCN(Cc2cc3ccccc3o2)CC1		inconclusive: 29.1 µM [cytotoxic, single point]
C[C@H](NC(=O)[C@@H]1Cc2ccccc2CN1C(=O)OC(C)(C)C)C(=O)NC1CCCC1		inconclusive: 6.51 µM [falling, single point]
COc1cc(NC(=O)c2ccco2)c(OC)cc1NC(=O)CSc1nnc(-c2cccs2)n1C		inconclusive: 0.366 µM [activator, full curve, poor fit]
CCOc1cc(-c2cc(-c3ccc(N)cc3)nc(N)c2C#N)ccc1O		inconclusive: 0.13 µM [falling, full curve, poor fit]
COc1ccc(C2c3[nH]c4ccccc4c3C[C@H]3C(=O)N(CCCO)CC(=O)N23)c(OC)c1 (stereo partly specified)	inconclusive: 223%	
NC(=S)N=Nc1c(O)n(CCCl)c2ccc(Br)cc12	inconclusive: 0.745%	
CCC(C)NC(=O)c1c(-c2cc(Cl)c(OC)c(Cl)c2)noc1C (stereo unspecified)	inconclusive: 2.26%	
COC(=O)c1ccccc1NC(=O)c1cc2n(n1)C(C(F)F)CC(C(F)F)N2 (stereo unspecified)		inconclusive: 0.116 µM [activator, full curve]
Cc1ccccc1NC(=S)NCc1ccc(F)cc1		inconclusive: 11.6 µM [falling, single point]
O=C(C1CCN(C2CC(=O)N(c3ccc(F)cc3)C2=O)CC1)N1CCOCC1 (stereo unspecified)	inconclusive: -54%	

3 of these compounds in another layout:
CC(C)OC(=O)c1nnn(-c2nonc2N)c1CSc1ccccn1
  lipid storage change, negative = inhibition: inconclusive: -28%
CCO[C@@H]1OC(C(=O)N2CCOCC2)=C[C@H](c2ccc(C(F)(F)F)cc2)[C@H]1CCCO
  lipid storage change, negative = inhibition: inconclusive: 0.407%
O=C(O)c1cccc2c1-c1ccccc1/C2=N\Nc1ccccc1
  lipid storage change, negative = inhibition: inconclusive: 25.6%

(continued)

Compound	lipid storage change, negative = inhibition	Potency
COc1cccc(N(C(=O)c2snc(C(N)=O)c2N)C(C(=O)NCC2CCCO2)c2c[nH]c3ccccc23)c1 (stereo unspecified)	inconclusive: 24%	
CCC(=O)Nc1ccc2c(c1)nc1n2CCSC1	inconclusive: 17%	
O=C(COc1ccccc1)Nc1ccc(-c2ccc(N3CCOCC3)nn2)cc1	inconclusive: 14.9%	
Cc1cccc(C)c1NC(=O)CNC(=O)c1ccc(N2CCCC2=O)cc1		inconclusive: 3.66 µM [falling, full curve]
c1csc(-c2nnc(N3CCOCC3)c3ccccc23)c1	inconclusive: 8.09%	
O=C(Cn1c(C(=O)O)cc2ccccc21)c1ccccc1		inconclusive: 7.31 µM [activator, partial curve]
COCCn1c(SC(C)C(=O)NC2CCCCC2C)nc2ccccc2c1=O (stereo unspecified)	inconclusive: 44.5%	
COc1cccc(-c2nn(-c3ccccc3)cc2CO)c1		inconclusive: 0.58 µM [activator, full curve]
NC(=O)N/N=C/c1cccc(C(F)(F)F)c1	inconclusive: 12%	
Cc1cccc(-n2c(-c3ccco3)n[nH]c2=S)c1	inconclusive: 1.42%	
O=C(O)CSCC(=O)NCc1ccc(Cl)cc1Cl		inconclusive: 2.91 µM [falling, single point]
CCOC(=O)c1ccc(NC(=S)N2CCC(C(N)=O)(N3CCCCC3)CC2)cc1	inconclusive: -1.08%	
CC(=O)Nc1cccc(NC(C)=O)n1	inconclusive: -24.7%	
CC(=O)Nc1ccc(S(=O)(=O)N(C)CC(=O)N/N=C/c2ccc(C(=O)O)cc2)cc1		inconclusive: 4.61 µM [activator, full curve]
CCOC(=O)c1c(NC(=O)COc2ccccc2F)sc2c1CC(C)(C)NC2(C)C	inconclusive: 27.9%	
COc1cccc(CNC(=O)CCCC(=O)NC(C)CCc2ccccc2)c1 (stereo unspecified)	inconclusive: -43.2%	
CCN(CC)c1ccc(-n2c(C)c(C(C)=O)c(C(C)=O)c2C)cc1	inconclusive: -11.1%	
COc1ccc(N(CC(=O)N2c3ccccc3CC2C)S(=O)(=O)c2c(C)nn(C)c2C)cc1 (stereo unspecified)	inconclusive: 57.6% [activator]	
O=C1c2ccccc2C(O)(c2ccccc2)N1c1ccncc1 (stereo unspecified)	inconclusive: 7.28%	
COc1ccc(-n2c(-c3ccc(C)cc3)n[nH]c2=S)cc1		inconclusive: 0.0046 µM [falling, full curve, poor fit]
Cc1cccc(NC(=O)CSc2nnc(-c3ccco3)c(-c3ccco3)n2)c1	inconclusive: 21.7%	
Cc1c(NC(=O)CN2CCN(c3ccc([N+](=O)[O-])cc3)CC2)c(=O)n(-c2ccccc2)n1C	inconclusive: 13.5%	
Cc1sc2nc(SCC(=O)NCCCO)n(-c3ccccc3)c(=O)c2c1C	inconclusive: -15%	
CC(C)Cn1c(N)c(C(=O)CSc2ccc3c(c2)OCCO3)c(=O)n(C)c1=O	inconclusive: -33.1%	
